{"source": "paper PMC3395635", "biological_target": "HIV-1 integrase with a C-terminal biotin acceptor sequence, biotinylated (virus NLXINB) (HIV-1)", "assay": "pull-down", "note": "These are yes or no findings as the source states them, for the method shown. Binding seen in cells or lysates may run through a third protein.", "data": [{"binder": "MCCA (protein, UniProt Q96RQ3 42-725, binds endogenous biotin) TTATGRNITKVLIANRGEIACRVMRTAKKLGVQTVAVYSEADRNSMHVDMADEAYSIGPAPSQQSYLSMEKIIQVAKTSAAQAIHPGCGFLSENMEFAELCKQEGIIFIGPPPSAIRDMGIKSTSKSIMAAAGVPVVEGYHGEDQSDQCLKEHARRIGYPVMIKAVRGGGGKGMRIVRSEQEFQEQLESARREAKKSFNDDAMLIEKFVDTPRHVEVQVFGDHHGNAVYLFERDCSVQRRHQKIIEEAPAPGIKSEVRKKLGEAAVRAAKAVNYVGAGTVEFIMDSKHNFCFMEMNTRLQVEHPVTEMITGTDLVEWQLRIAAGEKIPLSQEEITLQGHAFEARIYAEDPSNNFMPVAGPLVHLSTPRADPSTRIETGVRQGDEVSVHYDPMIAKLVVWAADRQAALTKLRYSLRQYNIVGLHTNIDFLLNLSGHPEFEAGNVHTDFIPQHHKQLLLSRKAAAKESLCQAALGLILKEKAMTDTFTLQAHDQFSPFSSSSGRRLNISYTRNMTLKDGKNNVAIAVTYNHDGSYSMQIEDKTFQVLGNLYSEGDCTYLKCSVNGVASKAKLIILENTIYLFSKEGSIEIDIPVPKYLSSVSSQETQGGPLAPMTGTIEKVFVKAGDKVKAGDSLMVMIAMKMEHTIKSPKDGTVKKVFYREGAQANRHTPLVEFEEEESDKRESE", "values": [{"measurement": "binding", "value": "no binding"}]}]}
